Data taken from PubChem BioAssay AID504834 (National Center for Advancing Translational Sciences (NCATS), 2011).
Out of some 320,000 compounds screened, about 22,000 (6.9%) were called active. Inconclusive means that the source gave no clear call. Such entries were picked first, then a sample of the others. Calls follow the shape of the dose curve; as a rule, active = well fitted inhibition curve with a large enough effect; inconclusive = small, poorly fitted or top-dose-only effect, or another doubt; inactive = no such curve, though single readings can be large or run the other way. A potency beside an inconclusive call is a rough fit, not a confirmed value.

test: Primary qHTS for delayed death inhibitors of the malarial parasite plastid, 96 hour incubation; details: P. falciparum luciferase reporter growth; series mostly up to 28.7 µM
In short: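 Readout is luminescence from an integrated firefly luciferase in P. falciparum. Red cells, 2% hematocrit and 0.05% parasitemia final, were cultured with compound through two parasite generations (96 hours) at 37 C, 5% CO2.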
% is scaled to controls: 0 for no effect and ±100 for the full control effect; potency is read from the fitted curve at half-maximal effect.

Row | SMILES | Potency | activity change, negative = inhibition
1 | CCOC(=O)C1=C(C)N(c2ccccc2)C(=O)NC1c1cccc([N+](=O)[O-])c1 (configuration not stated) | inconclusive: 2.62 µM [inhibitor, full curve, poor fit] | –
2 | COc1ccc(CCNCC2C(Oc3ccc(Cl)cc3)C(=O)N2c2ccccc2C)cc1OC (configuration not stated) | inconclusive: 18.5 µM [inhibitor, single point] | –
3 | C/C=C\C=C/C(=O)Nc1cccc(C2=NOC3(C2)C[C@@H](C(N)=O)N(C(=O)C2(C)CC2)C3)c1 (some centres not stated) | inactive | –
4 | O=C(Nc1ccccc1F)c1ccc(C(=O)c2ccccc2)cc1 | inactive | –
5 | Cc1ccc(-n2[nH]c(C)c(/C=N/N3C(=O)c4cccc5cccc(c45)C3=O)c2=O)cc1 | inconclusive: 10.4 µM [inhibitor, single point] | –
6 | CC(C)c1nnc(NC(=O)CC(=O)Nc2ccccc2C(=O)O)s1 | – | inactive: 24.9% [at 5.75 µM]
7 | COc1ccc(CCNC(=O)c2ccc(CNS(=O)(=O)c3ccccc3)cc2)cc1OC | inconclusive: 18.5 µM [inhibitor, single point] | –
8 | CN1CCN(S(=O)(=O)c2ccc(Nc3cccc(Cl)c3)c([N+](=O)[O-])c2)CC1 | inconclusive: 18.5 µM [inhibitor, single point] | –
9 | COCCn1nnnc1C(c1ccc(OC)cc1)N1CCN(C(=O)c2ccco2)CC1 (configuration not stated) | inconclusive: 9.28 µM [inhibitor, single point] | –
10 | CCOC(=O)c1ccc(S(=O)(=O)N2CC(=O)Nc3ccccc32)cc1 | inactive | –
11 | FC(F)(F)c1cnc(/C=C/Nc2ccccc2Cl)c(Cl)c1 | inactive | –
12 | C=CCn1c(SCC(=O)NCc2cccs2)nnc1C1CCCCC1 | inconclusive: 11.7 µM [inhibitor, single point] | –
13 | CCn1c(SCC(=O)Nc2cc(C)on2)nnc1-c1cccc(C)c1 | inconclusive: 18.5 µM [inhibitor, single point] | –
14 | COc1cccc(N(CC(=O)NC2CCCCC2)C(=O)CCC(=O)Nc2nc(C)cs2)c1 | inactive | –
15 | COc1ccc(N(C(=O)c2ccncc2)S(=O)(=O)c2cccc([N+](=O)[O-])c2)cc1 | inconclusive: 14.7 µM [inhibitor, partial curve, poor fit] | –
16 | CC(=O)N(c1nnc(-c2ccc(C)cc2)s1)C1CCCC1 | inconclusive: 18.5 µM [inhibitor, single point] | –
17 | CCCOc1ccc(Cc2c(Cl)nc(SC)nc2N(C)C)cc1 | inconclusive: 4.15 µM [inhibitor, single point] | –
18 | COc1ccccc1CNC(=O)c1ccc(NC2=NC3CS(=O)(=O)CC3S2)cc1 (configuration not stated) | active: 11.7 µM | –
19 | Cc1ccc(-c2cc(C(=O)N/N=C/C=C/c3ccccc3)n[nH]2)o1 | inconclusive: 4.15 µM [inhibitor, partial curve, poor fit] | –
20 | O=C(CNC(=O)c1cccs1)c1ccc([N+](=O)[O-])cc1 | inactive | –
21 | Nc1nonc1-n1nnc(C(=O)N/N=C/c2cccc(O)c2)c1CN1CCCC1 | inactive | –
22 | Cc1ccc(S(=O)(=O)N/N=C\c2cn(CC(N)=O)c3ccccc23)cc1 | inconclusive: 10.4 µM [inhibitor, partial curve] | –
23 | COc1ccc2oc(-c3ccc(C)c(NC(=O)CSc4ccc(Cl)cc4)c3)nc2c1 | inactive | –

Row | SMILES | Potency | activity change, negative = inhibition
24 | COC(=O)COC(=O)c1ccc(O)cc1 | inconclusive: 18.5 µM [inhibitor, single point] | –
25 | CCCn1c(NC(=O)CCNC(=O)c2ccccc2Cl)nc2ccccc21 | inconclusive: 9.28 µM [inhibitor, single point] | –
26 | C=CCN(CC=C)S(=O)(=O)c1ccc(C(=O)Nc2nnc(COC)o2)cc1 | inconclusive: 18.5 µM [inhibitor, single point] | –
27 | COc1ccccc1N1CC(C(=O)Nc2nnc(SCC(=O)NCC3CCCO3)s2)CC1=O (configuration not stated) | inconclusive: 14.7 µM [inhibitor, single point] | –
28 | Cc1cccc(NC(=O)c2nc[nH]c2C(=O)NCc2ccccc2)c1 | inconclusive: 14.7 µM [inhibitor, single point] | –
29 | COc1nccnc1NS(=O)(=O)c1ccc(NS(=O)(=O)c2ccc(NC(C)=O)cc2)cc1 | inconclusive: 14.7 µM [inhibitor, single point] | –
30 | CN(CC(=O)NCCc1ccc(Cl)cc1)S(=O)(=O)c1ccc2c(c1)c(=O)n(C)c(=O)n2C | active: 13.1 µM | –
31 | Cc1c(Cl)cccc1NC(=O)CSC(C)c1nc2ccccc2c(=O)[nH]1 (configuration not stated) | inconclusive: 8.28 µM [inhibitor, partial curve, poor fit] | –
32 | O=c1cc(O)nc(SCc2ccccc2)n1-c1ccc(F)cc1 | inconclusive: 3.7 µM [inhibitor, single point] | –
33 | CCCCn1c(N)c(N(CC(C)C)C(=O)CCNC(=O)c2ccc(Br)cc2)c(=O)[nH]c1=O | inconclusive: 4.65 µM [inhibitor, partial curve, poor fit] | –
34 | CC1Cc2cc(/C(O)=C3\C(=O)C(=O)N(CCN(C)C)C3c3ccccc3F)ccc2O1 (configuration not stated) | inactive | –
35 | CNC(=O)c1ccc2nc(NC(C)=O)sc2c1 | inconclusive: 8.28 µM [inhibitor, single point] | –
36 | COc1cc(C(=O)NCCc2nc3ccccc3n2C)cc(OC)c1OC | inconclusive: 18.5 µM [inhibitor, single point] | –
37 | CC(C)NC(=O)CSc1nc(N)c(-c2ccccc2)c(=O)[nH]1 | inactive | –
38 | CCOC(=O)C1(Cc2ccccc2C)CCCN(C(=O)CCC(=O)OC)C1 (configuration not stated) | inconclusive: 14.7 µM [inhibitor, single point] | –
39 | O=C(CSc1nnnn1-c1ccccc1)Nc1ncc2c(n1)CC(c1ccco1)CC2=O (configuration not stated) | inconclusive: 8.28 µM [inhibitor, partial curve, poor fit] | –
40 | O=C(COC(=O)C1CCC1)Nc1cccc(Cl)c1 | inactive | –
41 | Cc1ccc(-n2ncc3c(=O)n(CC(=O)N(C)C)cnc32)cc1 | inconclusive: 6.57 µM [inhibitor, partial curve] | –
42 | Nc1nnc(SCC(=O)NC23CC4CC(CC(C4)C2)C3)s1 | inactive | –
43 | CCOC(=O)N1CCN(C(=O)c2cccn3c(=O)c4c5c(sc4nc23)CCCC5)CC1 | inactive | –
44 | CCC1(CC)NC(=O)N(CC(=O)OCC(=O)Nc2cc(OC)ccc2OC)C1=O | inactive | –
45 | O=C(NC(=S)Nc1ccccc1C(F)(F)F)c1ccccc1F | inactive | –
46 | Cc1ccc(S(=O)(=O)c2ccc(Oc3ccccc3)cc2)cc1 | inconclusive: 0.0415 µM [inhibitor, full curve, poor fit] | –

Row | SMILES | Potency | activity change, negative = inhibition
47 | CCCCCCc1cc2cc(C(=O)OCC)c(=O)oc2cc1O | active: 1.47 µM | –
48 | Cc1c(C(=O)NCCSc2ccc(Cl)cc2)cccc1[N+](=O)[O-] | inconclusive: 11.7 µM [inhibitor, single point] | –
49 | CNS(=O)(=O)c1ccc(C(=O)NCC(=O)NCCC(c2ccccc2)c2ccccc2)cc1 | inconclusive: 7.38 µM [inhibitor, partial curve, poor fit] | –
50 | Cc1cc(C#N)c(C)c(SCc2[nH]nc3c2C(c2ccccc2)C(C#N)=C(N)O3)n1 (configuration not stated) | inconclusive: 4.15 µM [inhibitor, single point] | –
51 | O=C(NCc1ccccc1)c1ccc(CS(=O)(=O)Cc2ccccc2F)o1 | inconclusive: 2.33 µM [inhibitor, partial curve, poor fit] | –
52 | Cc1ccccc1OCC(=O)NNC(=O)C1CC(=O)N(c2ccc3c(c2)OCCO3)C1 (configuration not stated) | inconclusive: 0.522 µM [inhibitor, full curve, poor fit] | –
53 | O=C(C1CCCO1)N1CCN(C(=S)Nc2ccc(Cl)cc2Cl)CC1 (configuration not stated) | inconclusive: 13.1 µM [inhibitor, partial curve, poor fit] | –
54 | O=C(Nc1nc(-c2ccc(F)cc2)cs1)c1ccc(N2C(=O)CCC2=O)cc1 | inactive | –
55 | O=C1C2C3CCCC3=C3CCCC3C2C(=O)N1c1ccc(F)cc1 (configuration not stated) | inconclusive: 13.1 µM [inhibitor, single point] | –
56 | CC(C)c1ccc(C(=O)NCCCNC(=O)c2cnccn2)cc1 | inactive | –
57 | O=C(COC(=O)C1CC(O)CN1S(=O)(=O)c1ccc(Cl)cc1)c1ccccc1 (configuration not stated) | inactive | –
58 | C/C(=N\NC(=O)C1CCCN(S(=O)(=O)c2ccccc2)C1)c1cccnc1 (configuration not stated) | active: 9.28 µM | –
59 | COc1ccc(Nc2nc3c(C)cccc3cc2C#N)c(OC)c1 | inconclusive: 4.15 µM [inhibitor, partial curve, poor fit] | –
60 | CCNc1nc(NCC)n2c(SC(C(=O)Nc3cc(C)ccc3OC)c3ccccc3)nnc2n1 (configuration not stated) | inconclusive: 3.7 µM [inhibitor, single point] | –
61 | CS(=O)(=O)N(CC(=O)Nc1ccc2c(c1)OCO2)c1ccccc1 | inactive | –
62 | Cc1ccc(-c2nn(-c3ccc(F)cc3)cc2C(=O)N(C)CC(=O)Nc2ccc(N3CCOCC3)cc2)cc1 | inconclusive: 5.86 µM [inhibitor, partial curve] | –
63 | Cc1sc(C(=O)NCc2cccnc2)c2nc(C)n(CC(=O)NCc3cccnc3)c(=O)c12 | inconclusive: 1.85 µM [inhibitor, full curve] | –
64 | Cn1c(CC(=O)c2ccc(Br)cc2)[n+](C)c2ccccc21 | active: 0.738 µM | –
65 | O=C1[C@H]2[C@@H](c3ccc(F)cc3)N3C(=O)N(c4ccccc4)C(=O)[C@@]3(Cc3ccccc3)[C@H]2C(=O)N1C1CCCCC1 | inconclusive: 18.5 µM [inhibitor, single point] | –
66 | CC1CC(C)CN(CCCNC(=O)C2CCCN(c3ncnc4c3nc3n4CCCCC3)C2)C1 (configuration not stated) | inconclusive: 14.7 µM [inhibitor, partial curve, poor fit] | –
67 | CC(=O)c1cccc(NC(=O)CN2C(=O)c3cccnc3Oc3ccc(Cl)cc32)c1 | inconclusive: 13.1 µM [inhibitor, single point] | –

Given in markdown: part of the list above.

| Row | SMILES | Potency | activity change, negative = inhibition |
| --- | --- | --- | --- |
| 46 | Cc1ccc(S(=O)(=O)c2ccc(Oc3ccccc3)cc2)cc1 | inconclusive: 0.0415 µM [inhibitor, full curve, poor fit] | – |
| 47 | CCCCCCc1cc2cc(C(=O)OCC)c(=O)oc2cc1O | active: 1.47 µM | – |
| 48 | Cc1c(C(=O)NCCSc2ccc(Cl)cc2)cccc1[N+](=O)[O-] | inconclusive: 11.7 µM [inhibitor, single point] | – |
| 49 | CNS(=O)(=O)c1ccc(C(=O)NCC(=O)NCCC(c2ccccc2)c2ccccc2)cc1 | inconclusive: 7.38 µM [inhibitor, partial curve, poor fit] | – |
| 50 | Cc1cc(C#N)c(C)c(SCc2[nH]nc3c2C(c2ccccc2)C(C#N)=C(N)O3)n1 (configuration not stated) | inconclusive: 4.15 µM [inhibitor, single point] | – |
| 51 | O=C(NCc1ccccc1)c1ccc(CS(=O)(=O)Cc2ccccc2F)o1 | inconclusive: 2.33 µM [inhibitor, partial curve, poor fit] | – |
| 52 | Cc1ccccc1OCC(=O)NNC(=O)C1CC(=O)N(c2ccc3c(c2)OCCO3)C1 (configuration not stated) | inconclusive: 0.522 µM [inhibitor, full curve, poor fit] | – |
| 53 | O=C(C1CCCO1)N1CCN(C(=S)Nc2ccc(Cl)cc2Cl)CC1 (configuration not stated) | inconclusive: 13.1 µM [inhibitor, partial curve, poor fit] | – |
| 54 | O=C(Nc1nc(-c2ccc(F)cc2)cs1)c1ccc(N2C(=O)CCC2=O)cc1 | inactive | – |
| 55 | O=C1C2C3CCCC3=C3CCCC3C2C(=O)N1c1ccc(F)cc1 (configuration not stated) | inconclusive: 13.1 µM [inhibitor, single point] | – |
| 56 | CC(C)c1ccc(C(=O)NCCCNC(=O)c2cnccn2)cc1 | inactive | – |
| 57 | O=C(COC(=O)C1CC(O)CN1S(=O)(=O)c1ccc(Cl)cc1)c1ccccc1 (configuration not stated) | inactive | – |
| 58 | C/C(=N\NC(=O)C1CCCN(S(=O)(=O)c2ccccc2)C1)c1cccnc1 (configuration not stated) | active: 9.28 µM | – |
| 59 | COc1ccc(Nc2nc3c(C)cccc3cc2C#N)c(OC)c1 | inconclusive: 4.15 µM [inhibitor, partial curve, poor fit] | – |
| 60 | CCNc1nc(NCC)n2c(SC(C(=O)Nc3cc(C)ccc3OC)c3ccccc3)nnc2n1 (configuration not stated) | inconclusive: 3.7 µM [inhibitor, single point] | – |
| 61 | CS(=O)(=O)N(CC(=O)Nc1ccc2c(c1)OCO2)c1ccccc1 | inactive | – |
| 62 | Cc1ccc(-c2nn(-c3ccc(F)cc3)cc2C(=O)N(C)CC(=O)Nc2ccc(N3CCOCC3)cc2)cc1 | inconclusive: 5.86 µM [inhibitor, partial curve] | – |
| 63 | Cc1sc(C(=O)NCc2cccnc2)c2nc(C)n(CC(=O)NCc3cccnc3)c(=O)c12 | inconclusive: 1.85 µM [inhibitor, full curve] | – |
| 64 | Cn1c(CC(=O)c2ccc(Br)cc2)[n+](C)c2ccccc21 | active: 0.738 µM | – |
| 65 | O=C1[C@H]2[C@@H](c3ccc(F)cc3)N3C(=O)N(c4ccccc4)C(=O)[C@@]3(Cc3ccccc3)[C@H]2C(=O)N1C1CCCCC1 | inconclusive: 18.5 µM [inhibitor, single point] | – |
